Source: article PMC5491147
Results are given in words; binding and its absence hold for the method and conditions named. In cells and extracts the contact can be indirect. Some entries that bind do so weakly or less than the wild type. Where a sequence is shown, tags or fusion partners need not be part of it.

Sequences of proteins named here, by UniProt entry; tags and fusion partners are left off.
UniProt P03372: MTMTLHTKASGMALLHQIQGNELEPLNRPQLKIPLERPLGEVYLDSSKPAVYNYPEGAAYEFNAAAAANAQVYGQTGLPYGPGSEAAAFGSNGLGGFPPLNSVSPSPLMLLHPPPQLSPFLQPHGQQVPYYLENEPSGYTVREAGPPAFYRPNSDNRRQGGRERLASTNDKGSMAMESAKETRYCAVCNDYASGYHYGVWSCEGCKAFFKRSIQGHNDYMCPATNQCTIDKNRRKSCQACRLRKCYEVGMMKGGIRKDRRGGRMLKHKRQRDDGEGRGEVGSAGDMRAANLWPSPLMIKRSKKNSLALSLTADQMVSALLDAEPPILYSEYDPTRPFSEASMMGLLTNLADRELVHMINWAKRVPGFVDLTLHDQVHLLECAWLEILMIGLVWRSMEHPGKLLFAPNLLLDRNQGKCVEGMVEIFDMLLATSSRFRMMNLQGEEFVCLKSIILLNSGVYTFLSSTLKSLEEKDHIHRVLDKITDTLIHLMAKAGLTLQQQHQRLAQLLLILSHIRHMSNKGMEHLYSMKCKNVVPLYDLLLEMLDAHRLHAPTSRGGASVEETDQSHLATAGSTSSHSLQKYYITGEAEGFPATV

T1: GST-sLZIP (small leucine zipper protein) (human) (UniProt O43889)
T1 sequence: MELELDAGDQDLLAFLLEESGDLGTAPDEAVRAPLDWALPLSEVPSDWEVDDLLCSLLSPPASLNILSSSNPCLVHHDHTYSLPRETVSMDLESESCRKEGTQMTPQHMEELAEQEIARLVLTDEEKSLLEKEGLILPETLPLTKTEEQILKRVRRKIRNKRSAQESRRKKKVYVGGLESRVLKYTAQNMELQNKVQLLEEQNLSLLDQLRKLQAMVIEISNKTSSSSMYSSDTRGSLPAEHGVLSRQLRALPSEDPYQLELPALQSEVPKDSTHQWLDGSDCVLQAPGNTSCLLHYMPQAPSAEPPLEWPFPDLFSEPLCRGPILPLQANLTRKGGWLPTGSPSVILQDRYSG

B1: GFP-sLZIP (small leucine zipper protein) (protein, UniProt O43889-3 1-354)
chain: T1 sequence

Legend:
[1] = target: T1, GST-sLZIP (small leucine zipper protein) (human); assay: pull-down; MCF7 cells transfected with GST-mock and GST-sLZIP (2 μg), treated with 100 nM E2 for indicated time periods in charcoal stripped media; total cell lysates incubated overnight with glutathione Sepharose 4B beads at 4°C; Western blot with anti-ERα and anti-GST antibodies
[2] = target: T1, GST-sLZIP (small leucine zipper protein) (human); assay: co-IP; MCF7 cells transfected with GST-sLZIP (2 μg), stimulated with 100 nM E2 for indicated time periods in charcoal stripped media; total cell lysates immunoprecipitated with IgG and anti-GST antibody; protein A/G PLUS agarose overnight at 4°C; Western blot
[3] = target: estrogen receptor α (human (endogenous in MCF7)) (UniProt P03372); assay: co-IP; MCF7 cells transfected with GFP-sLZIP (2 μg), stimulated with 100 nM E2 for indicated time periods in charcoal stripped media; total cell lysates immunoprecipitated with IgG and anti-ERα antibody; protein A/G PLUS agarose overnight at 4°C; Western blot

Molecule | binding [1] | binding [2] | binding [3]
estrogen receptor α (from UniProt P03372 1-595) | binds | binds | –
B1 | – | – | binds
